According to doi:10.1101/2023.09.13.557663:
Results are given in words; binding and its absence hold for the method and conditions named. Binding seen in cells or lysates may run through a third protein. A yes stands for co-enrichment or nearness to the bait. Other partners may have been found.

Target: EGFR-flag-TurboID (EGFR-TurboID fusion construct, HeLa clone T1) (UniProt P00533)
Experiment: proximity labelling

Binder | binding
SH3BP1 (protein, UniProt Q9Y3L3 1-701) MMKRQLHRMRQLAQTGSLGRTPETAEFLGEDLLQVEQRLEPAKRAAHNIHKRLQACLQGQSGADMDKRVKKLPLMALSTTMAESFKELDPDSSMGKALEMSCAIQNQLARILAEFEMTLERDVLQPLSRLSEEELPAILKHKKSLQKLVSDWNTLKSRLSQATKNSGSSQGLGGSPGSHSHTTMANKVETLKEEEEELKRKVEQCRDEYLADLYHFVTKEDSYANYFIRLLEIQADYHRRSLSSLDTALAELRENHGQADHSPSMTATHFPRVYGVSLATHLQELGREIALPIEACVMMLLSEGMKEEGLFRLAAGASVLKRLKQTMASDPHSLEEFCSDPHAVAGALKSYLRELPEPLMTFDLYDDWMRAASLKEPGARLQALQEVCSRLPPENLSNLRYLMKFLARLAEEQEVNKMTPSNIAIVLGPNLLWPPEKEGDQAQLDAASVSSIQVVGVVEALIQSADTLFPGDINFNVSGLFSAVTLQDTVSDRLASEELPSTAVPTPATTPAPAPAPAPAPAPALASAATKERTESEVPPRPASPKVTRSPPETAAPVEDMARRTKRPAPARPTMPPPQVSGSRSSPPAPPLPPGSGSPGTPQALPRRLVGSSLRAPTVPPPLPPTPPQPARRQSRRSPASPSPASPGPASPSPVSLSNPAQVDLGAATAEGGAPEAISGVPTPPAIPPQPRPRSLASETN | binds
USP8 (protein, UniProt P40818 1-1118) MPAVASVPKELYLSSSLKDLNKKTEVKPEKISTKSYVHSALKIFKTAEECRLDRDEERAYVLYMKYVTVYNLIKKRPDFKQQQDYFHSILGPGNIKKAVEEAERLSESLKLRYEEAEVRKKLEEKDRQEEAQRLQQKRQETGREDGGTLAKGSLENVLDSKDKTQKSNGEKNEKCETKEKGAITAKELYTMMTDKNISLIIMDARRMQDYQDSCILHSLSVPEEAISPGVTASWIEAHLPDDSKDTWKKRGNVEYVVLLDWFSSAKDLQIGTTLRSLKDALFKWESKTVLRNEPLVLEGGYENWLLCYPQYTTNAKVTPPPRRQNEEVSISLDFTYPSLEESIPSKPAAQTPPASIEVDENIELISGQNERMGPLNISTPVEPVAASKSDVSPIIQPVPSIKNVPQIDRTKKPAVKLPEEHRIKSESTNHEQQSPQSGKVIPDRSTKPVVFSPTLMLTDEEKARIHAETALLMEKNKQEKELRERQQEEQKEKLRKEEQEQKAKKKQEAEENEITEKQQKAKEEMEKKESEQAKKEDKETSAKRGKEITGVKRQSKSEHETSDAKKSVEDRGKRCPTPEIQKKSTGDVPHTSVTGDSGSGKPFKIKGQPESGILRTGTFREDTDDTERNKAQREPLTRARSEEMGRIVPGLPSGWAKFLDPITGTFRYYHSPTNTVHMYPPEMAPSSAPPSTPPTHKAKPQIPAERDREPSKLKRSYSSPDITQAIQEEEKRKPTVTPTVNRENKPTCYPKAEISRLSASQIRNLNPVFGGSGPALTGLRNLGNTCYMNSILQCLCNAPHLADYFNRNCYQDDINRSNLLGHKGEVAEEFGIIMKALWTGQYRYISPKDFKITIGKINDQFAGYSQQDSQELLLFLMDGLHEDLNKADNRKRYKEENNDHLDDFKAAEHAWQKHKQLNESIIVALFQGQFKSTVQCLTCHKKSRTFEAFMYLSLPLASTSKCTLQDCLRLFSKEEKLTDNNRFYCSHCRARRDSLKKIEIWKLPPVLLVHLKRFSYDGRWKQKLQTSVDFPLENLDLSQYVIGPKNNLKKYNLFSVSNHYGGLDGGHYTAYCKNAARQRWFKFDDHEVSDISVSSVKSSAAYILFYTSLGPRVTDVAT | binds
EPN2 (protein, UniProt O95208 1-641) MTTSSIRRQMKNIVNNYSEAEIKVREATSNDPWGPSSSLMTEIADLTYNVVAFSEIMSMVWKRLNDHGKNWRHVYKALTLLDYLIKTGSERVAQQCRENIFAIQTLKDFQYIDRDGKDQGINVREKSKQLVALLKDEERLKAERAQALKTKERMAQVATGMGSNQITFGRGSSQPNLSTSHSEQEYGKAGGSPASYHGSPEASLCPQHRTGAPLGQSEELQPLSQRHPFLPHLGLASRPNGDWSQPCLTCDRAARATSPRVSSELEQARPQTSGEEELQLQLALAMSREVAEQEERLRRGDDLRLQMALEESRRDTVKIPKKKEHGSLPQQTTLLDLMDALPSSGPAAQKAEPWGPSASTNQTNPWGGPAAPASTSDPWPSFGTKPAASIDPWGVPTGATVQSVPKNSDPWAASQQPASSAGKRASDAWGAVSTTKPVSVSGSFELFSNLNGTIKDDFSEFDNLRTSKKTAESVTSLPSQNNGTTSPDPFESQPLTVASSKPSSARKTPESFLGPNAALVNLDSLVTRPAPPAQSLNPFLAPGAPATSAPVNPFQVNQPQPLTLNQLRGSPVLGTSTSFGPGPGVESMAVASMTSAAPQPALGATGSSLTPLGPAMMNMVGSVGIPPSAAQATGTTNPFLL | binds

Now from value to binder:

binding | Binder
binds | synergin gamma (SYNRG) (protein, UniProt Q9UMZ2 1-1314) MALRPGAGSGGGGAAGAGAGSAGGGGFMFPVAGGIRPPQAGLMPMQQQGFPMVSVMQPNMQGIMGMNYSSQMSQGPIAMQAGIPMGPMPAAGMPYLGQAPFLGMRPPGPQYTPDMQKQFAEEQQKRFEQQQKLLEEERKRRQFEEQKQKLRLLSSVKPKTGEKSRDDALEAIKGNLDGFSRDAKMHPTPASHPKKPGPSLEEKFLVSCDISTSGQEQIKLNTSEVGHKALGPGSSKKYPSLMASNGVAVDGCVSGTTTAEAENTSDQNLSIEESGVGVFPSQDPAQPRMPPWIYNESLVPDAYKKILETTMTPTGIDTAKLYPILMSSGLPRETLGQIWALANRTTPGKLTKEELYTVLAMIAVTQRGVPAMSPDALNQFPAAPIPTLSGFSMTLPTPVSQPTVIPSGPAGSMPLSLGQPVMGINLVGPVGGAAAQASSGFIPTYPANQVVKPEEDDFQDFQDASKSGSLDDSFSDFQELPASSKTSNSQHGNSAPSLLMPLPGTKALPSMDKYAVFKGIAADKSSENTVPPGDPGDKYSAFRELEQTAENKPLGESFAEFRSAGTDDGFTDFKTADSVSPLEPPTKDKTFPPSFPSGTIQQKQQTQVKNPLNLADLDMFSSVNCSSEKPLSFSAVFSTSKSVSTPQSTGSAATMTALAATKTSSLADDFGEFSLFGEYSGLAPVGEQDDFADFMAFSNSSISSEQKPDDKYDALKEEASPVPLTSNVGSTVKGGQNSTAASTKYDVFRQLSLEGSGLGVEDLKDNTPSGKSDDDFADFHSSKFSSINSDKSLGEKAVAFRHTKEDSASVKSLDLPSIGGSSVGKEDSEDALSVQFDMKLADVGGDLKHVMSDSSLDLPTVSGQHPPAADIEDLKYAAFGSYSSNFAVSTLTSYDWSDRDDATQGRKLSPFVLSAGSGSPSATSILQKKETSFGSSENITMTSLSKVTTFVSEDALPETTFPALASFKDTIPQTSEQKEYENRDYKDFTKQDLPTAERSQEATCPSPASSGASQETPNECSDDFGEFQSEKPKISKFDFLVATSQSKMKSSEEMIKSELATFDLSVQGSHKRSLSLGDKEISRSSPSPALEQPFRDRSNTLNEKPALPVIRDKYKDLTGEVEENERYAYEWQRCLGSALNVIKKANDTLNGISSSSVCTEVIQSAQGMEYLLGVVEVYRVTKRVELGIKATAVCSEKLQQLLKDIDKVWNNLIGFMSLATLTPDENSLDFSSCMLRPGIKNAQELACGVCLLNVDSRSRKEEKPAEEHPKKAFNSETDSFKLAYGGHQYHASCANFWINCVEPKPPGLVLPDLL
binds | EPN3 (protein, UniProt Q9H201 1-632) MTTSALRRQVKNIVHNYSEAEIKVREATSNDPWGPPSSLMSEIADLTFNTVAFTEVMGMLWRRLNDSGKNWRHVYKALTLLDYLLKTGSERVAHQCRENLYTIQTLKDFQYIDRDGKDQGVNVREKVKQVMALLKDEERLRQERTHALKTKERMALEGIGIGSGQLGFSRRYGEDYSRSRGSPSSYNSSSSSPRYTSDLEQARPQTSGEEELQLQLALAMSREEAEKPVPPASHRDEDLQLQLALRLSRQEHEKEVRSWQGDGSPMANGAGAVVHHQRDREPEREERKEEEKLKTSQSSILDLADIFVPALAPPSTHCSADPWDIPGFRPNTEASGSSWGPSADPWSPIPSGTVLSRSQPWDLTPMLSSSEPWGRTPVLPAGPPTTDPWALNSPHHKLPSTGADPWGASLETSDTPGGASTFDPFAKPPESTETKEGLEQALPSGKPSSPVELDLFGDPSPSSKQNGTKEPDALDLGILGEALTQPSKEARACRTPESFLGPSASSLVNLDSLVKAPQVAKTRNPFLTGLSAPSPTNPFGAGEPGRPTLNQMRTGSPALGLAGGPVGAPLGSMTYSASLPLPLSSVPAGLTLPASVSVFPQAGAFAPQPLLPTPSSAGPRPPPPQTGTNPFL
binds | RAB11FIP1 (protein, UniProt Q6WKZ4 1-1283) MSLMVSAGRGLGAVWSPTHVQVTVLQARGLRAKGPGGTSDAYAVIQVGKEKYATSVSERSLGAPVWREEATFELPSLLSSGPAAAATLQLTVLHRALLGLDKFLGRAEVDLRDLHRDQGRRKTQWYKLKSKPGKKDKERGEIEVDIQFMRNNMTASMFDLSMKDKSRNPFGKLKDKIKGKNKDSGSDTASAIIPSTTPSVDSDDESVVKDKKKKSKIKTLLSKSNLQKTPLSQSMSVLPTSKPEKVLLRPGDFQSQWDEDDNEDESSSASDVMSHKRTASTDLKQLNQVNFTLPKKEGLSFLGGLRSKNDVLSRSNVCINGNHVYLEQPEAKGEIKDSSPSSSPSPKGFRKKHLFSSTENLAAGSWKEPAEGGGLSSDRQLSESSTKDSLKSMTLPSYRPAPLVSGDLRENMAPANSEATKEAKESKKPESRRSSLLSLMTGKKDVAKGSEGENPLTVPGREKEGMLMGVKPGEDASGPAEDLVRRSEKDTAAVVSRQGSSLNLFEDVQITEPEAEPESKSEPRPPISSPRAPQTRAVKPRLEVSPEAQPTARLPSPTDSPSSLPPLPSSSGQASVPSELGHGADTQSSESPSVFSSLSSPIAAPISTSTPIESWPLVDRGQAKSEGPPLLPKAELQTESLTPVPNSGSSALGSLFKQPSFPANKGTEDSLMGRTRETGTEKNTSSLELEESLPEQPETGRQEEELPRFPCKKQDYSPSSGEAQEVPFALSLSSDGAVSPVGELAAGGDRDLESQAGSLVESKARDAAEEVAPPLPMGASVPSIDSMMRKLEEMGLNLRKDQKKTKKRVSFSEQLFTEEAVAGAALLVEGHSSCPQELNPAWSVAGNASDGEPPESPHAEDSERESVTTPGPATCGAPASPADHLLLPSQEESFSEVPMSEASSAKDTPLFRMEGEDALVTQYQSKASDHEGLLSDPLSDLQLVSDFKSPIMADLNLSLPSIPEVASDDERIDQVEDDGDQVEDDGETAKSSTLDIGALSLGLVVPCPERGKGPSGEADRLVLGEGLCDFRLQAPQASVTAPSEQTTEFGIHKPHLGKSSSLDKQLPGPSGGEEEKPMGNGSPSPPPGTSLDNPVPSPSPSEIFPVTHSFPSSAHSDTHHTSTAESQKKATAEGSAGRVENFGKRKPLLQAWVSPSETHPVSAQPGAGTGSAKHRLHPVKPMNAMATKVANCSLGTATIISENLNNEVMMKKYSPSDPAFAYAQLTHDELIQLVLKQKETISKKEFQVRELEDYIDNLLVRVMEETPNILRIPTQVGKKAGKM
